Laboratory results: PubChem BioAssay AID2685 (National Center for Advancing Translational Sciences (NCATS), 2010)
The list shows a part of the results. Shown are side measurements of this screen, not its main read-out; they come without a call. Compounds called inactive in the main read-out are mostly missing here. Potencies come from curve fits of mixed quality, noted in brackets.

Assay: qHTS Assay for Lipid Storage Modulators in Drosophila S3 Cells;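 for cell number change: cells counted by Cell Tracker Red CMTPX staining in the red channel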
Details: BODIPY lipid droplet fluorescence, 18-24 h; for cell number change: measured here: cell count max response, cells fed with added oleic acid
Procedure, shortened: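 Laser-scanning cytometry quantifies lipid droplet accumulation (500–530 nm total intensity; droplet/cell object ratio) in oleic acid-fed (400 uM added) Drosophila S3 cells treated with a concentration series. 20 uM Triacsin C defined 100% inhibition.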

[1] = measured here: lipid fluorescence (Fed channel) AC50, cells fed with added oleic acid
[2] = measured here: cell number channel AC50, cells fed with added oleic acid

Structure (SMILES)	cell number change [%]	AC50 [1]	AC50 [2]
CC(C)(CO)NC(=O)C12CC3CC(CC(Br)(C3)C1)C2	-28.5	0.291 µM [falling, partial curve, poor fit]	–
COc1ccc(Cl)cc1NC(=O)c1cccnc1	-15.2	0.517 µM [rising, full curve, poor fit]	–
CCCCN(C)C(=O)Cc1c(OC)ccc2cc(Br)ccc12	4.06	3.66 µM [rising, full curve]	–
COc1ccccc1C1C=C(c2ccc(C)cc2)Nc2nnnn21 (configuration not stated)	-7.26	6.51 µM [rising, single point]	–
CCC1CCCCN1C(=O)CSc1nc(C)cc(C)n1 (configuration not stated)	40.8	2.59 µM [rising, single point]	2.31 µM [rising, full curve]
Cc1noc(C)c1C(=O)NCCc1ccccc1	43.7	–	16.4 µM [rising, single point]
COc1cccc(CNC(=O)C2CCCN(C(=O)c3ccc(Cl)cc3)C2)c1 (configuration not stated)	-1.55	18.4 µM [rising, single point]	–
COCCCn1c(-c2ccc(OC)cc2)nc2c1c(=O)[nH]c(=O)n2Cc1ccccc1	13.5	6.51 µM [rising, partial curve, poor fit]	–
O=C(c1ccccc1F)n1c2c(c3ccccc31)CCCC2	–	–	6.51 µM [rising, single point]
C=CCc1c(C)nc(SC)nc1Nc1ccc(C(C)=O)cc1	–	29.1 µM [falling, single point]	–
Cc1cccc(Nc2c([N+](=O)[O-])c(=O)n(C)c3ccccc23)c1	-6.85	2.31 µM [rising, single point]	–
Cc1cccc(C(=O)NC(=S)NCc2cccnc2)c1	8.39	0.58 µM [rising, single point]	–
CCOc1ccccc1C(=O)N[C@H](C(=O)NCc1ccccc1)C(C)C	7.44	–	–
CC(C)C(NC(=O)CSc1ccc(Cl)cc1)C(C)C	-11.6	0.13 µM [falling, full curve]	–
Cc1cc(C(=O)COc2cccnc2[N+](=O)[O-])c(C)n1Cc1cccs1	35.2	4.61 µM [rising, full curve]	0.206 µM [rising, full curve]
C/C(=N/NC(=O)CNC(=O)C1COc2ccccc2O1)c1ccc2c(c1)OCCO2 (configuration not stated)	–	5.8 µM [rising, single point]	–
CC1CCN(Cc2c(C(=O)N/N=C/c3cc(Br)ccc3O)nnn2-c2nonc2N)CC1	9.46	29.1 µM [rising, single point]	–
COc1ccc(N(C(C)C(=O)N2CCCC2)S(C)(=O)=O)cc1 (configuration not stated)	-9.49	–	–
Cc1ccc(Cc2nnc(SCC(=O)Nc3ccccc3)n(N)c2=O)cc1	0.107	11.6 µM [falling, partial curve]	–
CCCCNC(=O)CN(CCc1ccccc1)S(C)(=O)=O	-46.5	3.66 µM [falling, full curve]	5.17 µM [falling, full curve]
Cc1ccc(F)cc1NC(=O)Nc1cc(C(C)(C)C)nn1C	3.96	6.51 µM [falling, single point]	6.51 µM [falling, single point]

Structure (SMILES)	cell number change [%]	AC50 [1]	AC50 [2]
N#Cc1ccc(N/N=C/c2cn(-c3ccccc3)nc2-c2ccccc2)c([N+](=O)[O-])c1	3.52	0.13 µM [rising, full curve, poor fit]	–
COc1ccc(NC(=O)CSc2ccc(NC(C)=O)cc2)cc1S(=O)(=O)N1CCCCC1	-12.2	–	4.61 µM [rising, single point]
CN(C)S(=O)(=O)c1ccc(N)c([N+](=O)[O-])c1	-43.9	–	29.1 µM [falling, single point]
Cc1ccccc1NC(=O)CCS(=O)(=O)c1cccc2nonc12	9.52	–	–
COc1ccc2nc(-c3ccccc3)cc(OC)c2c1	–	8.2 µM [rising, partial curve]	0.00461 µM [rising, full curve, poor fit]
Cc1cc(OCC(=O)N2CCC(C(N)=O)CC2)c2c(C)cc(=O)oc2c1	13.9	–	–
CCOC(=O)c1ccccc1NC(=O)C1CC(=O)N(c2ccccc2)C1 (configuration not stated)	32.1	29.1 µM [rising, single point]	29.1 µM [rising, single point]
CCC(Oc1cccc(C)c1)C(=O)Nc1ccccc1C(=O)N1CCOCC1 (configuration not stated)	-41.5	20.6 µM [falling, partial curve]	16.4 µM [falling, single point]
Cc1ccc(C)c(Cn2nnc3c(=O)[nH]c(C4CCN(C(=O)c5cccs5)CC4)nc32)c1	74.8	–	5.8 µM [rising, partial curve]
O=C(/C=C/c1ccc(Cl)cc1)c1ccc([N+](=O)[O-])o1	-66.2	4.11 µM [falling, full curve]	18.4 µM [falling, partial curve]
O=C(Nc1ccc(S(=O)(=O)Nc2nccs2)cc1)C1CCCCC1	17.7	–	–
O=C(NC(O)C(=O)c1ccccc1)c1ccc(F)cc1 (configuration not stated)	23	–	–
Cc1c(/C=C/C(=O)c2ccccc2)cnn1C	-4.4	2.91 µM [falling, single point]	–
C=CCn1c(COc2ccc(OC)cc2)nc2ccccc21	-6.82	29.1 µM [rising, single point]	–
Cc1nc([N+](=O)[O-])c(Br)n1CC(=O)c1ccc(Br)cc1	62.6	9.2 µM [rising, partial curve]	13 µM [rising, partial curve]
COc1ccccc1N1C(=O)C2C3CC(c4ccccc4)C(C3)C2C1=O (configuration not stated)	–	–	2.06 µM [rising, partial curve, poor fit]
O=S1(=O)C=CC(c2ccccc2)C1 (configuration not stated)	14.4	0.411 µM [falling, single point]	–
CCCN1C(=O)/C(=C2\SC(=S)N(c3c(C)n(C)n(-c4ccccc4)c3=O)C2=O)c2ccccc21	–	0.13 µM [falling, full curve, poor fit]	–
Cn1c(CNC(=O)c2ccco2)nnc1SCC(=O)Nc1cccc(Br)c1	–	18.4 µM [falling, partial curve]	–
CCOC(=O)C1=C(CSc2nc(CC)c(C)cc2C#N)OC(N)=C(C#N)C1c1ccccc1 (configuration not stated)	–	29.1 µM [falling, single point]	6.51 µM [rising, single point]
CC(=O)c1c(-c2ccc(Cl)cc2)c2ccccc2[nH]c1=O	-1.04	20.6 µM [falling, partial curve]	–

Structure (SMILES)	cell number change [%]	AC50 [1]	AC50 [2]
CC(C)(C)NCC(O)COc1ccc(Br)cc1 (configuration not stated)	-46.5	1.84 µM [falling, partial curve, poor fit]	–
COc1ccc(-c2nc(CN3CCCC(C(=O)NC4CCCC4)C3)c(C)o2)cc1 (configuration not stated)	3.4	0.13 µM [rising, full curve, poor fit]	–
COc1ccc(C(=O)NCC(=O)c2ccccc2)cc1	9.49	29.1 µM [rising, single point]	–
O=C(COc1ccccc1)NNc1nc2ccccc2s1	27.5	–	–
C=CCN1C=C2C(=O)C(C)(OC(=O)CCC(=O)OC)C(=O)C(Br)=C2C=C1c1ccc(OC)cc1 (configuration not stated)	-32.6	32.6 µM [falling, single point]	32.6 µM [falling, single point]
COc1cc(C(=O)NCCCNc2nc3cc(C)cc(C)c3cc2C#N)cc(OC)c1OC	13	–	–
NC(=O)NC(c1ccccc1)c1ccccc1	2.29	3.66 µM [rising, single point]	–
COc1cccc(NC(=O)CN(C)C(=O)Cc2c(C)nc3ccccc3c2C)c1	-0.249	4.11 µM [falling, single point]	–
CCOc1cc(N2CCOCC2)c(OCC)cc1NC(=O)c1ccc(S(C)(=O)=O)cc1	–	29.1 µM [rising, single point]	–
Cc1ccc(OCCCN(C)C)c(Br)c1	-9.51	9.2 µM [falling, partial curve, poor fit]	0.0731 µM [falling, full curve, poor fit]
CCC1CCCCN1C(=O)CCS(=O)(=O)c1ccc2c(c1)CCN2C(C)=O (configuration not stated)	-68.4	0.461 µM [falling, full curve]	29.1 µM [falling, single point]
O=C(Cn1c(=O)[nH]c2ccccc2c1=O)Nc1ccc2c(c1)OCO2	12.2	20.6 µM [falling, partial curve]	–
COCCn1ccc2c(OCC(=O)NCCc3ccccc3)cccc2c1=O	5.62	–	–
CCC(C)N(C(=O)c1csnn1)C(C(=O)NC1CCCC1)c1c(F)cccc1Cl (configuration not stated)	20.1	1.84 µM [falling, single point]	–
CCN(CC)S(=O)(=O)c1ccc(C(=O)OCC(=O)N2CCN(C(=O)c3ccco3)CC2)cc1	-4.88	0.58 µM [falling, partial curve]	–
CCOC(=O)c1c(-c2ccccc2)csc1NC(=O)CSc1nnnn1C	-15.2	3.66 µM [rising, partial curve]	–
CCC(=O)Nc1ccc(S(=O)(=O)NCC2CCCO2)cc1 (configuration not stated)	3.91	6.51 µM [falling, single point]	–
COc1ccccc1Cn1c(=S)[nH]c2cc(C(=O)N3CCN(c4ccccc4OC)CC3)ccc2c1=O	-20	2.06 µM [rising, partial curve, poor fit]	–
Cc1nnc(N(Cc2ccco2)C(=O)c2ccno2)s1	-5.83	29.1 µM [rising, single point]	–
